The list shows a part of the results.
test system: T1, CTL2-GFP (C. trachomatis L2/434/Bu, GFP-expressing); design: species or system HeLa; Intracellular C. trachomatis growth in HeLa cells, bulk GFP fluorescence relative to DMSO; conditions: bulk GFP, single well; 28.5 h, 10 µM; inhibitor
T1 construct: L2/434/Bu, GFP-expressing

Row | Structure (SMILES) | % of control remaining
1 | Cc1ccc(Oc2ncccc2[N+](=O)[O-])c(Br)c1 [CBK002822] | 99.3885%
2 | COc1ccc([N+](=O)[O-])cc1NC(=O)c1nc(C)c(C)nc1C(=O)O [CBK103387] | 114.754%
3 | CCCCc1ccc(-c2ccc3ccc(NC(=O)C(C)C)nc3n2)cc1 [CBK073668] | 134.812%
4 | O=C(Nc1ccc(Cc2ccncc2)cc1)c1ccc(CSc2ccc(Cl)cc2)cc1 [CBK262526] | 100%
5 | CCn1c(SCC(=O)Nc2nc(C)c(C(=O)OC)s2)nc2c1c(=O)n(C)c(=O)n2C [CBK127470] | 116.748%
6 | Fc1ccc(CN(Cc2ccsc2)[C@@H]2COC[C@H]2c2ccc(F)cc2)cc1 [CBK286486] | 121.161%
7 | Cc1cc2c([nH]c3ccccc32)c(C)n1 [CBK262689] | 81.132%
8 | CCOc1ccccc1OCC(C)CNC (stereo not shown) [CBK026242G] | 105.003%
9 | N#Cc1cc(Cl)ccc1CN1CCCCC1c1[nH]ncc1C(N)=O (stereo not shown) [CBK304746] | 113.099%
10 | O=C(O)CCC(NC(=O)c1ccc(-c2ccc(Cl)cc2)s1)C(=O)O (stereo not shown) [CBK295171] | 186.239%
11 | O=[N+]([O-])c1cccnc1Oc1cccc2cccnc12 [CBK002760] | 119.646%
12 | CCN(CC)CCn1c(NC(=O)c2c(Cl)nc3ccccn23)nc2ccccc21 [CBK298305] | 121.232%
13 | N#Cc1ccnc(N2CCC3(CCCN(CC4CCCCC4)C3=O)C2)c1 (stereo not shown) [CBK306561] | 100.7%
14 | CCCC(=O)NC1CC(C)(C)Cc2nc(N3CCOCC3)ncc21 (stereo not shown) [CBK306883] | 80.9936%
15 | CCOC(=O)N1CCN(Cn2nc(COc3ccccc3)n(C)c2=S)CC1 [CBK265148] | 130.757%
16 | O=C(CSc1nnc(-c2ccncc2)n1-c1ccccc1)Nc1ccnc2ccccc12 [CBK267900] | 108.189%
17 | O=C(Nc1ccc2n(c1=O)C[C@H]1C[C@@H]2CN(C(=O)Nc2ccc(F)cc2)C1)c1ccco1 [CBK289205] | 146.318%
18 | COc1ccc(C2CC(c3nc4ccccc4[nH]3)=NN2C(=O)CCN2CCCCC2)cc1 (stereo not shown) [CBK267673] | 102.371%
19 | Cn1ccc(C2CCCCCN2C(=O)c2c(Cl)cnn2C)n1 (stereo not shown) [CBK284914] | 139.145%
20 | COc1ccc(Cl)cc1CN(C)C(=O)c1ccc[nH]c1=O [CBK305933] | 130.193%
21 | OCCN1CCN(c2cc(Nc3ccc(Oc4ccccc4)cc3)nc3ccnn23)CC1 [CBK037185] | 184.526%
22 | O=C(CCCN1C(=O)/C(=C\c2cccs2)SC1=S)Nc1cc(Cl)ccc1O [CBK263673] | 100%
23 | Cc1nc(CN2CCC3(CC2)CN(C(=O)CO)c2ccccc23)cs1 [CBK131523] | 165.535%
24 | O=C1COc2ccc(S(=O)(=O)NCc3ccccc3)cc2N1 [CBK270156] | 152.74%
25 | COc1ccc(-c2cncc(N[C@@H](CO)C(C)C)n2)cc1 [CBK037941] | 199.893%
26 | CCn1cc(C(=O)O)c(=O)c2cnc(N3CCN(C(=S)NC(=O)c4c(-c5ccccc5)noc4C)CC3)nc21 [CBK267491] | 153.302%
27 | O=C(c1ccc2nc[nH]c2c1)N1CCC2(CCN(Cc3ccccc3)C2)C1 (stereo not shown) [CBK136862] | 127.043%

Row | Structure (SMILES) | % of control remaining
28 | CCN(Cc1ccncc1)C(=O)Nc1cccnc1 [CBK145053] | 104.666%
29 | COCCn1c(SC)nc2sc(-c3ccccc3)cc2c1=O [CBK295200] | 144.33%
30 | O=S(=O)(c1ccc(F)c(F)c1F)n1ccc2c(N3CCNCC3)nccc21 [CBK059066C] | 113.177%
31 | C=CCSc1nnc(-c2ccc(OCCC)cc2)[nH]1 [CBK267323] | 84.1513%
32 | Cc1ccc(C23CC4CC(CC(C(=O)NC(C(=O)O)C(C)C)(C4)C2)C3)cc1 (stereo not shown) [CBK264924] | 129.239%
33 | CCOC(=O)c1cnc2c(C)cc(C)cc2c1NCCN1CCOCC1 [CBK264757] | 109.693%
34 | Cc1nnc(SCCCNC(=O)C2CC(=O)N(Cc3ccccn3)C2)s1 (stereo not shown) [CBK307529] | 126.37%
35 | CCN(Cc1nc(-c2ccccc2)no1)C(=O)c1ccoc1C [CBK270229] | 148.76%
36 | O=C(N[C@H]1CO[C@H]2[C@@H]1OC[C@@H]2n1cc(CC2CCCCC2)nn1)C1CC1 [CBK289509] | 117.49%
37 | CSc1nn(C)c(=O)c2c3c(sc12)CCC3 [CBK019796] | 128.663%
38 | Cc1cc(Cl)c(S(=O)(=O)NCc2cccs2)cc1OCC(N)=O [CBK266496] | 143.072%
39 | O=C(CCCSc1nc2sc3c(c2c(=O)[nH]1)CCCC3)NCCO [CBK263336] | 129.875%
40 | Cc1cc(C)c(C)c(S(=O)(=O)NCCCC(=O)O)c1C [CBK268898] | 133.063%
41 | CC(=O)NCCn1cc2c(n1)[C@H]1CN(C(=O)CC(C)C)C[C@H]1CC2 [CBK284572] | 120.464%
42 | c1ccc2c(c1)nc(N1CCOCC1)n2CCN1CCOCC1 [CBK269841] | 111.056%
43 | O=C(O)C1(Oc2ccc3ccccc3c2)CCN(CC2CCOC2)CC1 (stereo not shown) [CBK306767] | 132.118%
44 | CN1C(=O)c2ccccc2C(O)C2(C)CN(Cc3ccccc3)CC12 (stereo not shown) [CBK282849] | 96.0116%
45 | N#Cc1ccccc1CSc1ncn[nH]1 [CBK027835] | 100%
46 | C[N+]1(C)CCN(C(=O)CCC(=O)N2CC[N+](C)(C)CC2)CC1 [CBK278200I] | 112.767%
47 | O=C(NC(=S)Nc1cccc(-c2nc3cc(Cl)ccc3o2)c1)c1ccccc1Br [CBK263973] | 140.686%
48 | COc1ccc(CN2CCN(C)CC2)cc1OCc1ccccc1 [CBK261886] | 108.643%
49 | Clc1cc(N[C@@H]2CCN(Cc3ccccc3)C2)n2nccc2n1 [CBK037069] | 143.567%
50 | O=C(O)C1(NS(=O)(=O)c2ccc(Cl)cc2)CCCCC1 [CBK028566] | 84.1802%
51 | CSCCN1CCC(Oc2nccnc2OCc2cc(C)on2)CC1 [CBK082966T] | 118.84%
52 | Nc1nccc(-c2cc(OCC(F)(F)F)ccc2OCC(F)(F)F)n1 [CBK005948] | 119.066%
53 | O=S(=O)(N[C@H]1CO[C@H]2[C@@H]1OC[C@@H]2n1cc(-c2ccccn2)nn1)c1cccs1 [CBK289508] | 105.641%
54 | CCC(C)(C)C(=O)Nc1ccc(Br)c2ccccc12 [CBK091342] | 71.5692%

Part of the list above in order of SMILES length, rising.
Row | Structure (SMILES) | % of control remaining
54 | CCC(C)(C)C(=O)Nc1ccc(Br)c2ccccc12 [CBK091342] | 71.5692%
51 | CSCCN1CCC(Oc2nccnc2OCc2cc(C)on2)CC1 [CBK082966T] | 118.84%
40 | Cc1cc(C)c(C)c(S(=O)(=O)NCCCC(=O)O)c1C [CBK268898] | 133.063%

Remaining list, next part

Row | Structure (SMILES) | % of control remaining
55 | CCOC(=O)c1c(NC(=O)c2cccnc2)sc2c1CCCC2 [CBK304574] | 99.6569%
56 | CCNC(=O)N[C@H]1CC[C@]2(C)CCC([C@H](C)C(=O)N3CCCC3)[C@H](O)[C@H]2[C@@H]1C (stereo partly shown) [CBK289456] | 107.689%
57 | CN(C)CC(=O)Nc1ccc(Br)cc1C(=O)c1ccccc1Cl [CBK264663F] | 126.809%
58 | CC1CN(C(=O)NC2CCCCC2)C(c2ccccc2)ON1C (stereo not shown) [CBK026650] | 133.672%
59 | COc1ccc(NC(=O)CSc2cc(-n3cccn3)ncn2)cc1 [CBK287819] | 104.681%
60 | O=C1OCc2ccc3c(c21)COCO3 [CBK022696] | 107.661%
61 | CCCCn1c(SCC(=O)N(C)Cc2cnn(-c3ccccc3)c2)n[nH]c1=O [CBK296732] | 129.263%
62 | Cc1cc2ccccc2n2c(=O)n(CC(=O)N3CCC(C)CC3)nc12 [CBK283881] | 128.663%
63 | OCc1ccccc1-c1cncc(N2CCCC2CO)n1 (stereo not shown) [CBK065333] | 179.607%
64 | Cc1nn(-c2nc3ccccc3s2)c(O)c1C1OC(=O)c2ccccc21 (stereo not shown) [CBK267220] | 127.459%
65 | N#CC1(NC(=O)c2ccn(-c3cccc(F)c3)n2)CCSC1 (stereo not shown) [CBK304566] | 110.414%
66 | COC(=O)N1CCC(C(=O)NC(c2ccccc2)c2nc(OC)cc(OC)n2)CC1 (stereo not shown) [CBK059651] | 134.095%
67 | Cc1cc(C)nc(SCC(=O)Nc2ccc(S(=O)(=O)NC3CCCCC3)cc2)n1 [CBK268299] | 141.699%
68 | CC(CN(C)C(=O)c1cocn1)Oc1ccc(Cl)c(Cl)c1 (stereo not shown) [CBK304285] | 112.664%
69 | COc1cncc(-c2cc(N3CCN(C(=O)c4ccco4)CC3)ncn2)c1 [CBK091121] | 174.154%
70 | COCCN1C(=O)CC2(C1=O)C(=O)N(CC(=O)c1ccccc1)c1ccccc12 (stereo not shown) [CBK075875] | 134.888%
71 | O=C(Nc1ccc(Cl)cc1)Nc1ccc(OCC(O)CN2CCCCC2)cc1 (stereo not shown) [CBK086101] | 75.8501%
72 | O=C1c2ccccc2C(=O)N1Cc1nc2ccccc2c(=O)n1CCCN1CCOCC1 [CBK268463] | 132.518%
73 | COc1ccc2[nH]c3c(c2c1)CCN1C(c2ccco2)N2CCC31CC2 (stereo not shown) [CBK284432] | 112.915%
74 | Cn1nccc1CN1CCNC(=O)C1c1ccccc1C(F)(F)F (stereo not shown) [CBK306422] | 118.552%
75 | CC(NC(=O)C1CC(=O)N(c2cccc(F)c2)C1)C1CC2CCC1C2 (stereo not shown) [CBK281664] | 130.93%
76 | Cc1nc([N+](=O)[O-])c(SCC(O)CN2CCCCC2)[nH]1 (stereo not shown) [CBK261727] | 116.059%
77 | Cc1cc(C)nc(SCCC(=O)O)n1 [CBK260975] | 118.271%
78 | CS(=O)(=O)N(CC(=O)Nc1ccc(S(=O)(=O)N2CCCCCC2)cc1)c1ccccc1F [CBK266829] | 141.558%
79 | Cc1ccccc1Cn1c(=O)sc2ccccc21 [CBK025408] | 124.495%

— PMC12040169 (PLOS Biology, 2025)
